Consider one molecule from patent publication US3966744A, “Spin labeled compounds” (priority 1974, dated 1976).

The experiment deals with antibody (methadone assay). The class given is binding, rabbit. As to conditions: 3.0 μg/ml.

Structures are written as SMILES.

For `CCOC(=O)C1(c2ccccc2)CCN(C)CC1` [demerol], the “% Mobilization” value turned out to be 7%.
